The values that follow come from patent US4882313A (SmithKline Beckman Corporation, priority 1987, dated 1989).

A short description of this series: general procedure: peptide synthesis; isobutyl chloroformate. Particulars: late stage modification step.

With “Ardacin aglycone-(2-N,N--dimethylaminoethyl amide)”, the step yield is reported as 48.5%.

As to “Ardacin aglycone-(2-N--methylaminoethyl amide)”, the step yield was 30%.
